Measurements reported in PubChem BioAssay AID1053209 (Peter MacCallum Cancer Centre, 2014).

- Aim: 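Knock-downs that sensitise mouse osteosarcoma cells to doxorubicin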 (follow-up of hits)
- Cells: mouse primary osteosarcoma cells
- Reagent: single siRNA against mouse genes, 25 nM (text also states 40 nM)
- Duration: about 120 h (48 h before drug, then 72 h with drug)
- Conditions: doxorubicin 100 nM (about IC30-40), added 48 h after transfection, for 72 h
- Detection: 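ATP-based luminescent viability, with or without doxorubicin, relative to non-targeting control NT1, mean of two replicates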
- Direction: viability with doxorubicin, vs NT1: higher = more viable cells under doxorubicin; viability ratio, doxorubicin over no drug: higher = less sensitisation to doxorubicin; viability without drug, vs NT1: higher = more viable cells without drug
- Active means: 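Active when doxorubicin viability is at most 0.7 of NT1 and drug-free viability lies between 0.7 and 1.1, class LC dox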
This is an unselected part of about 1,580 reagents. 207 of all reagents (13%) count as active. 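Rows are single siRNAs; four siRNAs per gene were tested, a gene counting as confirmed only when at least two agree.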 Reagents against one gene are numbered here.

| gene | siRNA no. | combined effect class | viability with doxorubicin, vs NT1 | viability ratio, doxorubicin over no drug | viability without drug, vs NT1 | Call |
| --- | --- | --- | --- | --- | --- | --- |
| Meltf | 1 | normal viability with and without drug | 0.91 | 0.93 | 0.98 | inactive |
| Meltf | 2 | normal viability with and without drug | 1.08 | 1.05 | 1.03 | inactive |
| Meltf | 3 | low viability only with doxorubicin; normal without drug | 0.7 | 0.76 | 0.92 | active |
| Meltf | 4 | high viability only without drug | 1.06 | 0.9 | 1.18 | inactive |
| Timm8b | 1 | normal viability with and without drug | 0.92 | 1.07 | 0.86 | inactive |
| Timm8b | 2 | normal viability with and without drug | 0.97 | 0.93 | 1.04 | inactive |
| Timm8b | 3 | normal viability with and without drug | 0.83 | 0.85 | 0.98 | inactive |
| Timm8b | 4 | normal viability with and without drug | 0.91 | 0.86 | 1.06 | inactive |
| Copa | 1 | low viability only with doxorubicin; normal without drug | 0.5 | 0.66 | 0.76 | active |
| Copa | 2 | low viability with and without drug | 0.16 | 0.5 | 0.32 | inactive |
| Copa | 3 | low viability with and without drug | 0.15 | 0.37 | 0.4 | inactive |
| Copa | 4 | low viability with and without drug | 0.05 | 0.28 | 0.18 | inactive |
| Tmco6 | 1 | normal viability with and without drug | 0.78 | 0.78 | 1 | inactive |
| Tmco6 | 2 | normal viability with and without drug | 0.98 | 0.92 | 1.06 | inactive |
| Tmco6 | 3 | high viability only without drug | 0.99 | 0.9 | 1.1 | inactive |
| Tmco6 | 4 | normal viability with and without drug | 0.89 | 0.95 | 0.94 | inactive |
| Psmc2 | 1 | normal viability with and without drug | 1.04 | 1.09 | 0.95 | inactive |
| Psmc2 | 2 | low viability with and without drug | 0.12 | 0.4 | 0.3 | inactive |
| Psmc2 | 3 | low viability with and without drug | 0.36 | 0.62 | 0.58 | inactive |
| Psmc2 | 4 | low viability with and without drug | 0.22 | 0.48 | 0.46 | inactive |
| Rpl31 | 1 | high viability with and without drug | 1.25 | 1.12 | 1.12 | inactive |
| Rpl31 | 2 | low viability with and without drug | 0.33 | 0.65 | 0.51 | inactive |
| Rpl31 | 3 | low viability only with doxorubicin; normal without drug | 0.68 | 0.79 | 0.86 | active |
| Rpl31 | 4 | low viability with and without drug | 0.3 | 0.68 | 0.44 | inactive |
| Nsfl1c | 1 | normal viability with and without drug | 0.96 | 0.89 | 1.08 | inactive |
| Nsfl1c | 2 | normal viability with and without drug | 0.89 | 0.88 | 1.01 | inactive |
| Nsfl1c | 3 | normal viability with and without drug | 1.02 | 1.04 | 0.98 | inactive |
| Nsfl1c | 4 | low viability only with doxorubicin; normal without drug | 0.55 | 0.7 | 0.79 | active |
| Fam25a | 1 | normal viability with and without drug | 0.94 | 0.92 | 1.02 | inactive |
| Fam25a | 2 | normal viability with and without drug | 0.9 | 0.93 | 0.97 | inactive |
| Fam25a | 3 | normal viability with and without drug | 0.84 | 0.82 | 1.02 | inactive |
| Fam25a | 4 | normal viability with and without drug | 0.74 | 0.83 | 0.89 | inactive |
| Spsb1 | 1 | normal viability with and without drug | 0.97 | 1.01 | 0.96 | inactive |
| Spsb1 | 2 | normal viability with and without drug | 0.84 | 0.82 | 1.02 | inactive |
| Spsb1 | 3 | normal viability with and without drug | 0.96 | 1 | 0.96 | inactive |
| Spsb1 | 4 | normal viability with and without drug | 1.01 | 0.97 | 1.04 | inactive |

Records above whose target name begins with T or t (8):
| gene | siRNA no. | combined effect class | viability with doxorubicin, vs NT1 | viability ratio, doxorubicin over no drug | viability without drug, vs NT1 | Call |
| --- | --- | --- | --- | --- | --- | --- |
| Timm8b | 1 | normal viability with and without drug | 0.92 | 1.07 | 0.86 | inactive |
| Timm8b | 2 | normal viability with and without drug | 0.97 | 0.93 | 1.04 | inactive |
| Timm8b | 3 | normal viability with and without drug | 0.83 | 0.85 | 0.98 | inactive |
| Timm8b | 4 | normal viability with and without drug | 0.91 | 0.86 | 1.06 | inactive |
| Tmco6 | 1 | normal viability with and without drug | 0.78 | 0.78 | 1 | inactive |
| Tmco6 | 2 | normal viability with and without drug | 0.98 | 0.92 | 1.06 | inactive |
| Tmco6 | 3 | high viability only without drug | 0.99 | 0.9 | 1.1 | inactive |
| Tmco6 | 4 | normal viability with and without drug | 0.89 | 0.95 | 0.94 | inactive |

Additional results follow.
| gene | siRNA no. | combined effect class | viability with doxorubicin, vs NT1 | viability ratio, doxorubicin over no drug | viability without drug, vs NT1 | Call |
| --- | --- | --- | --- | --- | --- | --- |
| Rpl37 | 1 | low viability with and without drug | 0.32 | 0.73 | 0.44 | inactive |
| Rpl37 | 2 | low viability with and without drug | 0.32 | 0.8 | 0.4 | inactive |
| Rpl37 | 3 | normal viability with and without drug | 0.72 | 0.95 | 0.76 | inactive |
| Rpl37 | 4 | low viability with and without drug | 0.33 | 0.72 | 0.46 | inactive |
| Snrpb | 1 | low viability with and without drug | 0.18 | 0.46 | 0.39 | inactive |
| Snrpb | 2 | low viability only with doxorubicin; normal without drug | 0.56 | 0.73 | 0.77 | active |
| Snrpb | 3 | low viability with and without drug | 0.18 | 0.5 | 0.36 | inactive |
| Snrpb | 4 | low viability with and without drug | 0.05 | 0.17 | 0.29 | inactive |
| Snrpd1 | 1 | low viability only with doxorubicin; normal without drug | 0.5 | 0.66 | 0.76 | active |
| Snrpd1 | 2 | low viability with and without drug | 0.16 | 0.33 | 0.48 | inactive |
| Snrpd1 | 3 | low viability with and without drug | 0.04 | 0.13 | 0.31 | inactive |
| Snrpd1 | 4 | low viability only with doxorubicin; normal without drug | 0.52 | 0.62 | 0.84 | active |
| E2f5 | 1 | normal viability with and without drug | 1.04 | 1.16 | 0.9 | inactive |
| E2f5 | 2 | normal viability with and without drug | 0.94 | 0.9 | 1.04 | inactive |
| E2f5 | 3 | high viability only with doxorubicin | 1.1 | 1.02 | 1.08 | inactive |
| E2f5 | 4 | normal viability with and without drug | 0.96 | 1.01 | 0.95 | inactive |
| Rasgef1b | 1 | high viability only with doxorubicin | 1.15 | 1.22 | 0.94 | inactive |
| Rasgef1b | 2 | normal viability with and without drug | 0.84 | 0.87 | 0.97 | inactive |
| Rasgef1b | 3 | normal viability with and without drug | 1.02 | 1.05 | 0.97 | inactive |
| Rasgef1b | 4 | normal viability with and without drug | 0.86 | 0.96 | 0.9 | inactive |
| Rb1cc1 | 1 | normal viability with and without drug | 0.95 | 1.02 | 0.93 | inactive |
| Rb1cc1 | 2 | normal viability with and without drug | 0.88 | 1 | 0.88 | inactive |
| Rb1cc1 | 3 | low viability only with doxorubicin; normal without drug | 0.64 | 0.67 | 0.95 | active |
| Rb1cc1 | 4 | normal viability with and without drug | 0.93 | 0.98 | 0.95 | inactive |
